# Results reported in PubChem BioAssay (Tox21).
# Protein sequences, listed by entry. Tags and fused reporters are not part of them. Lines headed by an entry give the natural chain unless they say otherwise; changes in a name come on top.
# UniProt P28223, whole entry, looked up: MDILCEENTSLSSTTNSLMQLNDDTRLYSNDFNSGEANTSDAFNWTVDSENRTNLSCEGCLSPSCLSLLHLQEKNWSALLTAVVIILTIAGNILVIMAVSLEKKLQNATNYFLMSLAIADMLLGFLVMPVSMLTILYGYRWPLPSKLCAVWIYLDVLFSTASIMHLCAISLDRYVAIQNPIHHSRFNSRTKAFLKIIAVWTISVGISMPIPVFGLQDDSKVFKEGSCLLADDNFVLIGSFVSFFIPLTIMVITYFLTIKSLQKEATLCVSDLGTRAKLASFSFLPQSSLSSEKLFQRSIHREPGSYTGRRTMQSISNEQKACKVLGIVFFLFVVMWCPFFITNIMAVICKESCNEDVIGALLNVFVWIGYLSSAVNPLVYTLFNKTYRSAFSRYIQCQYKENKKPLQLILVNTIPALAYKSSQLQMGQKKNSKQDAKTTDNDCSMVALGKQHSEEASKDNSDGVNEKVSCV
# UniProt P14416, whole entry, looked up: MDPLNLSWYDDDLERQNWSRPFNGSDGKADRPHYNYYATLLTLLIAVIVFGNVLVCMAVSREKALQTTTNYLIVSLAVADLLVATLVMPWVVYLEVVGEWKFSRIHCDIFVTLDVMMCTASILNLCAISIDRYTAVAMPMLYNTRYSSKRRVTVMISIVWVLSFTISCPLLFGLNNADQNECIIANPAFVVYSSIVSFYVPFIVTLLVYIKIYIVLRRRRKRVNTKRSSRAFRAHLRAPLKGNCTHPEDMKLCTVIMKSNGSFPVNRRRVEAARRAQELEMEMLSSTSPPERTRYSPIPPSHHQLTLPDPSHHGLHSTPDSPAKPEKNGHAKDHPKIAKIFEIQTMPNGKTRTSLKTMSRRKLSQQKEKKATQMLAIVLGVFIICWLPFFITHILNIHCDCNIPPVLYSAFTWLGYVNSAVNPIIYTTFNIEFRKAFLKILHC
# UniProt P11229: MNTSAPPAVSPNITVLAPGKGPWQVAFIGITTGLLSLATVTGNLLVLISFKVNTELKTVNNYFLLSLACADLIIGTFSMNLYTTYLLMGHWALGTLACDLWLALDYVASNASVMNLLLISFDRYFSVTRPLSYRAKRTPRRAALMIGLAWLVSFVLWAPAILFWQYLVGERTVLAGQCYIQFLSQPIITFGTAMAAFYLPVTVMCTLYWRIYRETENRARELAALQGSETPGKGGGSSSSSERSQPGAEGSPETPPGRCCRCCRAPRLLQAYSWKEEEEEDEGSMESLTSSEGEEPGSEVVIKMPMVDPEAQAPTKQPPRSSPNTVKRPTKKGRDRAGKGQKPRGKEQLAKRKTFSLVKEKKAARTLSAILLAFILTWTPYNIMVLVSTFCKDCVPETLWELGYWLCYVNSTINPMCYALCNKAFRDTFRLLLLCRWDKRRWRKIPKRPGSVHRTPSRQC
# Several values for one entry are separate records, joined by “and”; a condition that tells them apart may be missing. Identical values can stand only once. The shares of active, inactive and inconclusive entries below differ from those in the screen. For part of these data: Potencies beside an inconclusive call are fits to weak or partial responses and may not hold up. Activity calls are given as the source filed them. Unless noted, calls come from the whole dose curve.
# Key:
# [1] = Nuclear factor erythroid 2-related factor 2/antioxidant responsive element (Nrf2/ARE) small molecule agonists: luciferase reporter gene qHTS assay in human keratinocytes (AID 1919969); note: nearly all actives have a fitted effect of over 35% in size; note: potency is the fitted concentration of half-maximal effect; for activity, positive = activation: % is set by controls: 0 for no effect and ±100 for the full control effect
# [2] = target: 5-hydroxytryptamine receptor 2A (Homo sapiens) (UniProt P28223); test: 5-hydroxytryptamine receptor 2A (HTR2A) small molecule antagonists, cell-based qHTS assay (AID 1963586); note: nearly all actives have a fitted effect of over 45% in size; note: potency is the fitted concentration of half-maximal effect
# Summary of the method: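 Antagonist-mode intracellular calcium assay: DOI (4 nM) added after 5 min compound pre-incubation at room temperature to dye-loaded HTR2A-CHO cells. Fluorescence followed for 3 min, sampled every second.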
# [3] = target: 5-hydroxytryptamine receptor 2A (Homo sapiens) (UniProt P28223); test: 5-hydroxytryptamine receptor 2A (HTR2A) small molecule agonists, cell-based qHTS assay (AID 1963587); settings: HTR2A-CHO cells, calcium flux fluorescence, agonist mode; activation: at 76.8 µM (top of the series); note: nearly all actives have a fitted effect of over 30% in size; note: potency is the fitted concentration of half-maximal effect
# Summary of the method: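 HTR2A-CHO cells, plated 18 h at 37 C/5% CO2, dye-loaded 1 h at 37 C; compounds in DMSO added by pin tool (agonist mode). Intracellular calcium flux read as kinetic fluorescence on FDSS over 2 min at 1 s intervals.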
# [4] = target: D(2) dopamine receptor (Homo sapiens) (UniProt P14416); test: Dopamine D2 receptor (DRD2) small molecule agonists, cell-based qHTS assay (AID 1963594); settings: HEK293-DRD2 cAMP HTRF, agonist mode, 30 min; activation: at 92.4 µM (top of the series) unless noted; note: nearly all actives have a fitted effect of over 35% in size; note: potency is the fitted concentration of half-maximal effect
# Summary of the method: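 HEK293 cells stably expressing DRD2 were cultured 24 h at 37 C, then given Ro20-1724 (0.1 mM final) and compounds for 10 min at room temperature. NKH477 (200nM) was then added for 30 min. cAMP was read by HTRF.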
# [5] = target: Muscarinic acetylcholine receptor M1 (Homo sapiens) (UniProt P11229); test: Cholinergic receptor muscarinic 1 (CHRM1) small molecule antagonists, cell-based qHTS assay (AID 1963588); note: nearly all actives have a fitted effect of over 40% in size; note: potency is the fitted concentration of half-maximal effect
# Summary of the method: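 CHRM1-CHO calcium-flux assay, antagonist mode. Cells were seeded 18 h, dye-loaded 1 h at 37 C and given compound for 5 min at RT, then acetylcholine was added at 50nM. FDSS fluorescence was read 3 min; 15 concentrations, three runs.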
# [6] = cAMP Responsive Elements (CRE) small molecule antagonists, cell-based qHTS assay (AID 1963591; active = well fitted inhibition curve with a large enough effect in the signal ratio in the repeat runs, not every such curve was filed as active; inconclusive = weak or mixed curves, or effect the other way; the % refers to the signal ratio; note: potency is the fitted concentration of half-maximal effect; for activity change, negative = inhibition: % is set by controls: 0 for no effect and ±100 for the full control effect); settings: CRE-bla HEK293T, beta-lactamase FRET ratio
# Summary of the method: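 CRE-bla HEK293T cells plated 18 h, then given compound plus NKH477 at 0.25 uM final for 3 h at 37C. Beta-lactamase reporter read with LiveBLAzer B/G FRET substrate after 2 h at room temperature.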
# [7] = target: Beta-2 adrenergic receptor (Homo sapiens) (UniProt P07550); test: Adrenergic beta2 receptor (ADRB2) small molecule antagonists, cell-based qHTS assay (AID 1963592); settings: CHO-ADRB2 cells, isoproterenol-stimulated cAMP HTRF ratio, 0.5 h; activity change, negative = inhibition: at 92.4 µM (top of the series) unless noted; note: % is set by controls: 0 for no effect and ±100 for the full control effect; nearly all actives have a fitted effect of over 50% in size
# Summary of the method: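 Cells (CHO, stable ADRB2 overexpression) incubated 18-20hr at 37C; compounds added from DMSO; agonist mix (1nM isoproterenol, 100uM IBMX, 25uM Ro-20-1724) added; 0.5hr RT; d2-cAMP and anti-cAMP-cryptate added; 1hr RT; 665/615 nm read.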
# [8] = target: Beta-2 adrenergic receptor (Homo sapiens) (UniProt P07550); test: Adrenergic beta2 receptor (ADRB2) small molecule agonists, cell-based qHTS assay (AID 1963593); settings: CHO-ADRB2 cells, cAMP HTRF, 30 min; note: potency is the fitted concentration of half-maximal effect;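 for activation: CHO cells stably overexpressing human ADRB2; % is set by controls: 0 for no effect and ±100 for the full control effect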
# Summary of the method: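 CHO cells stably over-expressing ADRB2 were plated overnight at 37C, then dosed with compounds plus a stimulation mix containing 100uM IBMX and 25uM Ro-20-1724 for 0.5hr at room temperature. cAMP was measured by HTRF competition, 1hr.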
# [9] = cAMP Responsive Elements (CRE) small molecule agonists, cell-based qHTS assay (AID 1963590); settings: CRE-bla HEK293T, beta-lactamase FRET ratio, 3 h; activation: at 92.4 µM (top of the series) unless noted; note: potency is the fitted concentration of half-maximal effect; for activation: % is set by controls: 0 for no effect and ±100 for the full control effect
# Summary of the method: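 CRE-bla HEK 293T cells, 2,000/well in DMEM with 10% dialyzed FBS and 25 mM HEPES, pre-incubated 18 h at 37 C, then exposed to compound 3 h at 37 C. Beta-lactamase reporter read with LiveBLAzer B/G FRET substrate after 2 h at room temperature.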
# [10] = p53 small molecule agonists, cell-based qHTS assay (AID 1963582; active = well fitted activation curve with a large enough effect in the signal ratio in the repeat runs, not every such curve was filed as active; inconclusive = weak or mixed curves; the % refers to the signal ratio; note: potency is the fitted concentration of half-maximal effect); settings: HCT-116 p53RE-bla reporter, beta-lactamase FRET ratio, 16 h; activation: at 66 µM (top of the series) unless noted
# Summary of the method: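 p53RE-bla reporter cells, compounds added in DMSO after 5 h plating, incubated 16 h at 37 C. Beta-lactamase read via 2 h room-temperature LiveBLAzer B/G FRET substrate, fluorescence intensity.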
# [11] = target: D(2) dopamine receptor (Homo sapiens) (UniProt P14416); test: Dopamine D2 receptor (DRD2) small molecule antagonists, cell-based qHTS assay (AID 1963595; active = well fitted inhibition curve with a large enough effect in the signal ratio in the repeat runs, with a control signal flat; inconclusive = weak or mixed curves, or effect the other way; the % refers to the signal ratio; note: potency is the fitted concentration of half-maximal effect); settings: HEK293-DRD2 cAMP HTRF antagonist mode; activity change, negative = inhibition: at 92.4 µM (top of the series) unless noted
# Summary of the method: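 HEK293 cells stably expressing DRD2 were preincubated with 0.1 mM Ro20-1724, then with compound for 10 min at room temperature. Cells were stimulated with 200 nM NKH477 plus 12 nM quinpirole for 30 min, and cAMP was read by HTRF.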
# [12] = activity change, negative = inhibition: at 92.4 µM (top of the series) unless noted
# [13] = activation: at 92.4 µM (top of the series) unless noted
compound,measurement,setting,value
CCCN(CCC)CCc1c[nH]c2ccccc12,Potency,[1],"inconclusive: 67.7 µM [activator, single point]"
same,Potency,[2],active: 0.0131 µM
same,Potency,[3],active: 0.0043 µM
same,Potency,[4],active: 21.4 µM
CCNc1nc(Cl)nc(NCC)n1,Potency,[1],"inconclusive: 68.9 µM [activator, single point]"
same,Potency,[5],"inconclusive: 1.03 µM [inhibitor, single point]"
same,"activity change, negative = inhibition",[6]; [12],inconclusive: 12.9%
same,"activity change, negative = inhibition",[6]; at 42.4 µM (top of the series),inactive: 4.4%
same,"activity change, negative = inhibition",[6]; at 92.4 µM (top of the series),inactive: 3.95%
same,Potency,[7],inactive
same,activation,[8]; [13],inconclusive: 30.9%
same,activation,[8]; at 42.5 µM (top of the series),inactive: 1.45%
same,activation,[8]; at 92.4 µM (top of the series),inactive: -41.4%
CC(C)CCCCCCOC(=O)c1ccccc1C(=O)OCCCCCCC(C)C,Potency,[1],inactive
same,Potency,[2],inconclusive: 0.0009 µM [inhibitor]
same,Potency,[8]; [13],"inconclusive: 76.9 µM [inhibitor, single point] and inactive"
CC(C)N(C(=O)SC/C(Cl)=C/Cl)C(C)C,Potency,[1],"inconclusive: 69 µM [activator, partial curve, poor fit]"
same,Potency,[5],inconclusive: 47.5 µM [inhibitor]
same,Potency,[9],inactive
Clc1ccccc1-c1ccccc1Cl,Potency,[1],"inconclusive: 15.6 µM [activator, partial curve]"
same,Potency,[2],active: 47.9 µM
same,activation,[8]; [13],inconclusive: 0.803%
N#CC(C#N)=Cc1ccc(O)c(O)c1,Potency,[1],"inconclusive: 26.6 µM [activator, partial curve, poor fit]"
same,Potency,[9],"inconclusive: 29.8 µM [rising, partial curve, poor fit]"
same,Potency,[6]; [12],inconclusive: 23.7 µM [activator]
same,Potency,[8]; [13],"inconclusive: 26.6 µM [activator, single point]"
CC(C)N(C(=O)SCC(Cl)=C(Cl)Cl)C(C)C,Potency,[1],"inconclusive: 68.6 µM [activator, single point]"
same,Potency,[5],"active: 23.4 µM and inconclusive: 11.9 µM [inhibitor, partial curve]"
same,"activity change, negative = inhibition",[7],inconclusive: -29.2%
same,activation,[8]; [13],inconclusive: 3.36% and inconclusive: -63.2%
CCCCCCCCCCCCCN1CC(C)OC(C)C1 (centres undefined),Potency,[1],inactive
same,Potency,[2],inactive
same,Potency,[5],"inconclusive: 33.4 µM [inhibitor, partial curve]"
same,Potency,[6]; [12],inactive
same,Potency,[8]; [13],inactive
C#CCN1C(=O)COc2cc(F)c(N3C(=O)C4=C(CCCC4)C3=O)cc21,Potency,[1],"inconclusive: 68.6 µM [activator, single point]"
same,Potency,[5],"inconclusive: 47.2 µM [inhibitor, single point]"
same,Potency,[6]; [12],inactive
same,Potency,[8]; [13],inactive
NC(=O)CI,Potency,[1],inconclusive: 69.1 µM [activator]
same,Potency,[3],inactive
same,Potency,[4],inactive
[N-]=[N+]=[N-],Potency,[1],"inconclusive: 66.3 µM [activator, single point]"
same,Potency,[2],"inconclusive: 2.9 nM [inhibitor, full curve, poor fit] and inactive"
same,activation,[8]; [13],inconclusive: 9.68%
same,activation,[8]; at 92.4 µM (top of the series),inactive: -9.23%
Clc1c(Cl)c(Cl)c(Cl)c(Cl)c1Cl,"activity, positive = activation",[1],inactive: 1.26% [at 8.39 µM]
same,Potency,[10],"inconclusive: 0.25 µM [falling, single point]"
same,activation,[8]; [13],inactive: 15.9% [at 8.39 µM]
O=[N+]([O-])C(Br)(CO)CO,Potency,[1],"inconclusive: 68.6 µM [activator, single point]"
same,Potency,[3],inconclusive: 54.9 µM [activator]
same,Potency,[6]; [12],inconclusive: 61.1 µM [inhibitor]
same,Potency,[8]; [13],"inconclusive: 61.1 µM [activator, partial curve, poor fit]"
same,activation,[4],inconclusive: -27.3%
same,Potency,[11],inconclusive: 68.6 µM [inhibitor]
N#CCCl,Potency,[1],inactive
same,Potency,[2],inactive
same,Potency,[9],"inconclusive: 71.5 µM [rising, single point]"
same,Potency,[8]; [13],inactive
O=[N+]([O-])C(Br)Br,Potency,[1],"inconclusive: 48.7 µM [activator, partial curve]"
same,Potency,[2],active: 37.6 µM
same,Potency,[9],inactive
same,Potency,[6]; [12],inactive
same,activation,[8]; [13],inconclusive: 8.81%
CCCN(CC)CC1COC2(CCC(C(C)(C)C)CC2)O1 (centres undefined),Potency,[1],"inconclusive: 43.3 µM [activator, partial curve, poor fit]"
same,Potency,[2],active: 10.6 µM
same,Potency,[5],inactive
same,Potency,[9],inactive
same,Potency,[8]; [13],inactive
